Data as given in PubChem BioAssay AID1224830 (NIAID, 2016).

Test: 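Host factors that control LPS-induced TNF expression in human macrophages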 (primary screen)
Cells: human THP-1 monocytic leukaemia cells, TNF dual-luciferase reporter clone, PMA-differentiated to macrophage-like cells
Reagents: siRNA pool against human genes, 50 nM
Time to read-out: LPS for 4 h, given about 3 days after siRNA transfection
Challenge: bacterial LPS (TLR4 ligand), 10 ng/ml
Measurement: 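TNF firefly reporter luminescence divided by renilla, normalised to the plate median, then turned into a robust z-score for each replicate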
Reading the numbers: TNF reporter robust z-score: higher = stronger TNF reporter response to LPS
Call rule: 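Each well counts as active if its z-score is over 2.8 or under -1.5; controls are left without a call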
The deposit covers about 18,000 reagents; this is a random part of them. Of all reagents, about 2,900 (16%) were called active. 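Calls are made per well; low scores hint the gene aids the LPS response, high scores that it dampens it.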 A number with no mark means an inactive call. Repeated entries: four replicate wells of each siRNA pool. Reagent sequences are not shown.

| gene | TNF reporter robust z-score |
| --- | --- |
| G3BP2 (G3BP stress granule assembly factor 2) | -0.79 |
| G3BP2 (G3BP stress granule assembly factor 2) | -0.99 |
| G3BP2 (G3BP stress granule assembly factor 2) | -0.76 |
| G3BP2 (G3BP stress granule assembly factor 2) | 0.13 |
| BEST1 (bestrophin 1) | -0.25 |
| BEST1 (bestrophin 1) | 2.15 |
| BEST1 (bestrophin 1) | -0.59 |
| BEST1 (bestrophin 1) | 0.58 |
| ZBTB48 (zinc finger and BTB domain containing 48) | -1.19 |
| ZBTB48 (zinc finger and BTB domain containing 48) | 0.15 |
| ZBTB48 (zinc finger and BTB domain containing 48) | -0.94 |
| ZBTB48 (zinc finger and BTB domain containing 48) | -0.25 |
| TXLNB (taxilin beta) | -0.39 |
| TXLNB (taxilin beta) | -0.46 |
| TXLNB (taxilin beta) | -0.71 |
| TXLNB (taxilin beta) | -0.74 |
| PADI2 (peptidyl arginine deiminase 2) | 0.55 |
| PADI2 (peptidyl arginine deiminase 2) | -0.47 |
| PADI2 (peptidyl arginine deiminase 2) | -0.48 |
| PADI2 (peptidyl arginine deiminase 2) | -0.38 |
| PTPN14 (protein tyrosine phosphatase non-receptor type 14) | 1.02 |
| PTPN14 (protein tyrosine phosphatase non-receptor type 14) | 0.8 |
| PTPN14 (protein tyrosine phosphatase non-receptor type 14) | 0.4 |
| PTPN14 (protein tyrosine phosphatase non-receptor type 14) | 1.85 |
| CCDC124 (coiled-coil domain containing 124) | -0.1 |
| CCDC124 (coiled-coil domain containing 124) | 0.3 |
| CCDC124 (coiled-coil domain containing 124) | -0.84 |

Next part; the last 4 above are carried over.
| gene | TNF reporter robust z-score |
| --- | --- |
| PTPN14 (protein tyrosine phosphatase non-receptor type 14) | 1.85 |
| CCDC124 (coiled-coil domain containing 124) | -0.1 |
| CCDC124 (coiled-coil domain containing 124) | 0.3 |
| CCDC124 (coiled-coil domain containing 124) | -0.84 |
| RAB29 (RAB29, member RAS oncogene family) | -0.84 |
| RAB29 (RAB29, member RAS oncogene family) | -0.83 |
| RAB29 (RAB29, member RAS oncogene family) | -0.89 |
| RAB29 (RAB29, member RAS oncogene family) | -0.99 |
| UNCX (UNC homeobox) | 1 |
| UNCX (UNC homeobox) | 0.75 |
| UNCX (UNC homeobox) | -0.65 |
| UNCX (UNC homeobox) | 0.22 |
| PCSK6 (proprotein convertase subtilisin/kexin type 6) | -0.03 |
| PCSK6 (proprotein convertase subtilisin/kexin type 6) | -0.41 |
| PCSK6 (proprotein convertase subtilisin/kexin type 6) | -1.15 |
| PCSK6 (proprotein convertase subtilisin/kexin type 6) | 0.15 |
| COA4 (cytochrome c oxidase assembly factor 4 homolog) | -0.99 |
| COA4 (cytochrome c oxidase assembly factor 4 homolog) | -0.12 |
| COA4 (cytochrome c oxidase assembly factor 4 homolog) | -0.22 |
| COA4 (cytochrome c oxidase assembly factor 4 homolog) | -0.48 |
| CCL4L2 (C-C motif chemokine ligand 4 like 2) | 0.3 |
| CCL4L2 (C-C motif chemokine ligand 4 like 2) | -0.35 |
| CCL4L2 (C-C motif chemokine ligand 4 like 2) | -0.67 |
| CCL4L2 (C-C motif chemokine ligand 4 like 2) | -0.6 |
